PubChem BioAssay AID504791 | Drosophila RNAi Screening Center – 2011

Screen: 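Genes whose knock-down strengthens or weakens small-RNA reporter silencing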 (primary screen)
System: Drosophila S2-derived reporter cells
Reagent: long dsRNA against Drosophila genes, about 150-250 ng dsRNA per well (siRNA assay); about 80-120 ng (miRNA assay)
Duration: about 5 days (siRNA assay); about 4 days (miRNA assay)
Conditions: copper sulfate induction of reporters: 25 µM (siRNA assay); 200 mM stated (miRNA assay), 1-2 days before reading
Read-out: 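Dual luciferase assay: Renilla to firefly signal ratio in each well, scaled to the mean ratio of its plate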
Call rule: 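a well was a first-pass pick when its plate-scaled ratio rose above 1.5 (siRNA assay) or 1.6 (miRNA assay), or dropped below 0.6; a gene counted only if two separate dsRNAs agreed on retest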
The screen tested about 23,000 reagents; shown is an unselected part of those that have a named target and a result. In the full data, 199 (0.86%) were called active. 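Plate-scaled ratios behind the calls are not deposited; printed light signals are raw; many rows marked increased or decreased are still called inactive.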 Names joined by + are all predicted targets of the reagent. Reagent sequences are not shown. Not given: the direction of the score.

no.	predicted target	dsRNA	stable siRNA reporter change	miRNA reporter change	stable assay Renilla, run 1 (luminescence)	stable assay firefly, run 1 (luminescence)	outcome
1	CG1674	DRSC17142			7347	4.83e5	inactive
2	CG33557	DRSC17854			4859	3.80e5	inactive
3	Chsy	DRSC20175			5891	4.41e5	inactive
4	Chsy	DRSC20176			4199	3.53e5	inactive
5	Or59b	DRSC04632			6883	4.26e5	inactive
6	ppk5	DRSC11492			5224	3.79e5	inactive
7	Vha36-2	DRSC06294			7738	2.95e5	inactive
8	mei-P22	DRSC11366			6586	4.32e5	inactive
9	dpr7	DRSC17109			7523	3.71e5	inactive
10	CG17234	DRSC00490			8384	3.44e5	inactive
11	betaNACtes3	DRSC20183			4783	3.68e5	inactive
12	Pak	DRSC12602			7826	3.22e5	inactive
13	Pak	DRSC23302			4236	3.80e5	inactive
14	CG31674	DRSC03208			7683	5.26e5	inactive
15	Zir	DRSC00307			10916	4.70e5	inactive
16	Mlc1	DRSC16740			6899	3.92e5	inactive
17	CR31292	DRSC13120			6035	4.79e5	inactive
18	Smg6	DRSC16029			10028	3.41e5	inactive
19	frtz	DRSC00512			7837	5.68e5	inactive
20	cv-d	DRSC16522	reporter ratio lowered past the hit cutoff		7559	4.91e5	inactive
21	cv-d	DRSC16524			6926	3.47e5	inactive
22	cv-d	DRSC16526			6787	3.25e5	inactive
23	ppk12	DRSC04086			7231	4.90e5	inactive
24	CR40450 + CG32767	DRSC18387			7602	5.83e5	inactive
25	CG33267	DRSC09120			3892	3.11e5	inactive
26	SP	DRSC09664			5151	3.05e5	inactive
27	CG11286	DRSC14293			6550	3.73e5	inactive
28	CG43078	DRSC10292			7972	5.09e5	inactive
29	CG43078	DRSC10608			8575	5.28e5	inactive
30	CG43078	DRSC21541			10490	4.24e5	inactive
31	CG43078	DRSC22327			9409	6.22e5	inactive
32	Bdbt	DRSC15218			9393	3.33e5	inactive
33	Cdc5	DRSC08577			10397	4.23e5	inactive
34	CG2519	DRSC12312			7067	4.15e5	inactive
35	CheB93a	DRSC15044			7275	3.23e5	inactive
36	Cbp20	DRSC16601	reporter ratio raised past the hit cutoff	reporter ratio raised past the hit cutoff	23692	5.65e5	active
37	Gug	DRSC11179			5739	4.07e5	inactive
38	AANATL3	DRSC02089			6750	3.05e5	inactive
39	CG14720	DRSC14942			6859	3.93e5	inactive
40	gsb-n	DRSC04021			5274	5.73e5	inactive
41	gsb-n	DRSC04693			5311	4.51e5	inactive
42	CG9150	DRSC03148			7327	4.08e5	inactive
43	gskt	DRSC14056			9650	4.29e5	inactive
44	CG13712	DRSC08321			6971	5.56e5	inactive
45	sicily	DRSC19704			5036	3.93e5	inactive
46	HisT	DRSC05051			5376	4.55e5	inactive
47	HisT	DRSC05052			5456	4.68e5	inactive
48	HisT	DRSC06405			8406	5.40e5	inactive
49	CG30047	DRSC05340			5620	3.07e5	inactive
50	bai	DRSC14388			6516	3.47e5	inactive
51	CG30427	DRSC04014			4335	4.05e5	inactive
52	CG30427	DRSC04311			36820	9.57e5	inactive
53	CG30427	DRSC04323			6267	4.20e5	inactive
54	CG12853	DRSC06193			3699	4.32e5	inactive
55	Or43a	DRSC07485			5860	3.94e5	inactive
56	Spg7	DRSC18469			5642	3.17e5	inactive
57	SelT	DRSC02732			9811	1.87e5	inactive
58	CG33514	DRSC08471			4622	3.94e5	inactive
59	CG33514	DRSC08472			5358	4.55e5	inactive
60	CG33514	DRSC21670			9076	4.68e5	inactive
61	Yod1	DRSC10433			7755	4.04e5	inactive
62	MED18	DRSC18549			6111	3.86e5	inactive
63	hydra	DRSC20497			6080	4.81e5	inactive
64	CG7016	DRSC16174			7503	4.16e5	inactive
65	CG15638	DRSC01875			6446	3.03e5	inactive
66	gwl	DRSC16305			9286	4.78e5	inactive
67	CG14464	DRSC07760			6543	3.15e5	inactive
68	Sod1	DRSC11286			5551	3.80e5	inactive
69	Rdh	DRSC08063			5567	3.13e5	inactive
70	Rdh	DRSC08434			3792	2.73e5	inactive
71	DIP-gamma	DRSC14873			7695	6.13e5	inactive
72	Gk2	DRSC08610			11078	4.64e5	inactive
73	CG12115	DRSC17811			6023	5.32e5	inactive
74	CG5877	DRSC19963			8198	4.76e5	inactive
75	nmd	DRSC02856			26698	1.28e6	inactive
76	wcd	DRSC07051			8409	3.51e5	inactive
77	CG7707	DRSC10903			8267	4.76e5	inactive
78	Jheh2	DRSC06530			6520	3.24e5	inactive
79	E(var)3-9	DRSC14451			6786	3.93e5	inactive
80	E(var)3-9	DRSC23242			4936	3.36e5	inactive
81	mRpL50	DRSC11015			3252	4.27e5	inactive
82	TM9SF3	DRSC09747			5427	3.39e5	inactive
83	fidipidine	DRSC07618			6779	2.58e5	inactive

An excerpt of the results above, for reference:
no.	predicted target	dsRNA	stable siRNA reporter change	miRNA reporter change	stable assay Renilla, run 1 (luminescence)	stable assay firefly, run 1 (luminescence)	outcome
59	CG33514	DRSC08472			5358	4.55e5	inactive
60	CG33514	DRSC21670			9076	4.68e5	inactive
61	Yod1	DRSC10433			7755	4.04e5	inactive
62	MED18	DRSC18549			6111	3.86e5	inactive
63	hydra	DRSC20497			6080	4.81e5	inactive
64	CG7016	DRSC16174			7503	4.16e5	inactive
65	CG15638	DRSC01875			6446	3.03e5	inactive
66	gwl	DRSC16305			9286	4.78e5	inactive
67	CG14464	DRSC07760			6543	3.15e5	inactive
68	Sod1	DRSC11286			5551	3.80e5	inactive
69	Rdh	DRSC08063			5567	3.13e5	inactive
70	Rdh	DRSC08434			3792	2.73e5	inactive
71	DIP-gamma	DRSC14873			7695	6.13e5	inactive
72	Gk2	DRSC08610			11078	4.64e5	inactive
